Reference: publication PMC3400576
These are yes or no findings as the source states them, for the method shown. For some assays here: Binding seen in cells or lysates may run through a third protein.

Assays:
[1] = molecular target: T1, PRG-1 (C. elegans Piwi-type Ago protein) (C. elegans (endogenous in embryos)) (UniProt P90786); experiment: co-IP; co-IP of HENN-1 and PRG-1; told only in the discussion, no details given
T1 sequence: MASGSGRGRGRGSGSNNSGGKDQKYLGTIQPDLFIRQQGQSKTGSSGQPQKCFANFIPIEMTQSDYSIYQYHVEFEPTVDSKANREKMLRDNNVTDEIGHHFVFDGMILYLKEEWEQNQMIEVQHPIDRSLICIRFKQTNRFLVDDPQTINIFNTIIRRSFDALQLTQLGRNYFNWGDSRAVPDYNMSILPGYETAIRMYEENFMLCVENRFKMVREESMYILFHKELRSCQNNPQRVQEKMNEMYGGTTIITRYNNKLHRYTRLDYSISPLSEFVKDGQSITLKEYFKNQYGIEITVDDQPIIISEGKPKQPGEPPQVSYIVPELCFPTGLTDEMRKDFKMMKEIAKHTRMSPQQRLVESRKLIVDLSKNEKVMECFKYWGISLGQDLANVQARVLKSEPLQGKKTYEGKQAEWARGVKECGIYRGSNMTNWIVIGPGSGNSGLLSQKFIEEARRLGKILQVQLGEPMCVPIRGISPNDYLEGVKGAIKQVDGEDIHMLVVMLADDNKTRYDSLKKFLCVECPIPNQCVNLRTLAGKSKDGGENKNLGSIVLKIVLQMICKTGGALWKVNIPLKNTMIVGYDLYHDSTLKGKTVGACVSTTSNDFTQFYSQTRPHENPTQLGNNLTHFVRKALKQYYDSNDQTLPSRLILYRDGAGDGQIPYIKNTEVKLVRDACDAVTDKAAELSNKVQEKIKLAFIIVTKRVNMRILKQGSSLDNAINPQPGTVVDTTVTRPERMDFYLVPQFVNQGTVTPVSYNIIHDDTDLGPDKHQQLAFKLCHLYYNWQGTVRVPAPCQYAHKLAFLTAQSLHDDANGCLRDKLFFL

[2] = molecular target: T1, PRG-1 (C. elegans Piwi-type Ago protein) (C. elegans (endogenous in embryos)); experiment: SEC; C. elegans embryonic extracts on a size-exclusion column; fractions analysed by Western blot for HENN-1 and PRG-1

binding [1]: no binding
binding [2]: no binding
B1: HENN-1 (C. elegans HEN1 homolog, C02F5.6) (protein, UniProt P34283 1-442)
chain: MAHTSDGWGAPYDNQTYVEAYEQLEIALLEPLDRILETANVEEFRPKFKNHQDPNDRKNKKNNDEEWRDSIYNIATDESDTDDHEQRKNFFQPPLQVQRNSFVKNTLMEFKRSSQIDISRLAVMGCGEMSLEKGICEYLGSFGTINVLSVDIDEPSLSIGQQLLGKHLERNAEILAVETGLPVLMRSYVGDILEPDHRFADVDAIVSMEVVEHIPLPNAKKFVENVLGTLMPRIFIFSTPNHEYNAVFGMEPGEFRHGDHKFEMNRKEFSNWLEELSIRFPHYQIDPPHYIGMTRGYENLSGASQAAVCRLQVDLNTTLPQEVTPYEMVGHLPCRLGSRLIAYNLVKEAFLDWLEKIELQEHEPRTDGYSPYWIFNVQNILHHLKAPVSFALTIDEKVAIKYIQGMTSRKVHAEYSHGFNGIVILQMHSKEELIKTVQDNTL
